Source: patent US11931428B2, “Selective hydrogen sulfide probe and uses thereof” (Wake Forest University Health Sciences, priority 2019, dated 2024)

Assay: Time-dependent and concentration-dependent fluorescence sensing of H2S in PBS buffer
Conditions: AL1 40 μM
Experimental: FIG. 3. (A) Time-dependent fluorescence emission (λex: 330 nm) of AL1 (20 μM) in the presence of Na2S (50 μM). (B) Fluorescence intensity (λex: 330 nm) of AL1 ([…]) in response to increasing Na2S concentrations.
The efficiency of AL1 in sensing H2S in PBS buffer (pH 7.4) and at room temperature was also assessed (FIG. 3A). Under these conditions, the resulting fluorescence intensity reached a maximum in less than two minutes, highlighting that our designed probe is not only selective but also highly reactive towards H2S—a necessary feature for detecting analytes which are short-lived. To determine if AL1 could also be used to detect H2S quantitatively in buffer, the resulting fluorescence was measured in response to a series of different concentrations of H2S (FIG. 3B). Indeed, the ensuing fluorescence intensity increased in a linear fashion in the range of 0-20 μM H2S and with a detection limit of 0.05 μM.

CC(=O)NCCS[Se]CC(C)(C)C(=O)Oc1ccc2ccc(=O)oc2c1 [AL1]
detection limit for H2S: 0.05 µM | range of H2S in which fluorescence intensity increased in a linear fashion (increasing Na2S concentrations): 0 to 20 µM
